# Test results taken from PubChem BioAssay AID2685 (National Center for Advancing Translational Sciences (NCATS), 2010).
# Among all 320,000 compounds or so, about 2,100 (0.66%) were called active. The shares of active, inactive and inconclusive entries below differ from those in the screen. Calls follow the shape of the dose curve; as a rule, active = well fitted inhibition curve with a large enough effect in the signal ratio, with a control signal flat (not every such curve was filed as active); inconclusive = small, poorly fitted or top-dose-only effect, or effect the other way, or a change in a side signal; inactive = flat fitted curve, though single readings scatter; the % refers to the signal ratio. Potencies of inconclusive entries are doubtful fits and often do not repeat.
# Assay: qHTS Assay for Lipid Storage Modulators in Drosophila S3 Cells
# Conditions: BODIPY lipid droplet fluorescence, 18-24 h, cells fed with added oleic acid; lipid storage change, negative = inhibition: at 46.1 µM (top of the series) unless noted
# Procedure, shortened: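 Drosophila S3 cells loaded with oleic acid (400 uM, as added) and compounds at several concentrations; lipid droplets imaged by 488-nm laser-scanning cytometry, 500–530 nm intensity and object ratio to cell channel. Percent activity normalized to 20 uM Triacsin C.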
# % is scaled to controls: 0 for no effect and ±100 for the full control effect; potency is read from the fitted curve at half-maximal effect.
Compound,Potency,"lipid storage change, negative = inhibition",outcome
COc1cc2ccc3c(CCN(C)C)cc(OC)c(OC)c3c2cc1OC,"inconclusive: 0.411 µM [activator, partial curve, poor fit]",,
O=C(COC(=O)c1cccs1)Nc1ccccc1Cl,active: 16.4 µM,,
CC(C)(NO)/C(=N\O)c1ccc(Cl)cc1,"inconclusive: 25.9 µM [activator, single point]",,
CCOC(=O)C1=C(C)N(C)C(C)=C(C(=O)OCC)C1c1ccncc1,"inconclusive: 8.2 µM [activator, partial curve]",,
Cc1ccc2c(c1)N(CC(=O)NCCCN1CCCCC1)C(=O)CO2,"inconclusive: 29.1 µM [falling, single point]",,
Cc1cccc(C(=O)OCC(=O)NN2C(=O)NC3(CCCCC3)C2=O)c1,,inconclusive: -11.2%,
Fc1ccccc1COc1ccccc1CNCc1ccncc1,,inconclusive: 71.1%,
COc1cccc(CN(C)c2nc(-c3cccs3)nc3ccccc23)c1,"inconclusive: 1.03 µM [rising, full curve]",,
O=C(CSc1ccc(Cl)cc1)N/N=C/c1cccnc1,,inconclusive: -2.91%,
N=c1n(CCN2CCCCC2)c2ccccc2n1CC(O)COc1ccccc1 (stereo unspecified),,inconclusive: 21%,
C=CCc1ccccc1OCC(O)CN(C(C)C)C(C)C (stereo unspecified),,inconclusive: -28.3%,
CC(C)NS(=O)(=O)c1ccc(OCC(=O)NC(C)c2ccccc2)cc1 (stereo unspecified),,inconclusive: 50.9%,
COc1ccc(N2CCN(C(=O)CCC(=O)NNc3nc4ccccc4c4nc(C)nn34)CC2)cc1,,inconclusive: 31.8%,
Cc1ccc(NC(=O)c2ccccc2-c2ccc(C(F)(F)F)cc2)cc1S(=O)(=O)N1CCOCC1,,inconclusive: 85.5%,
CC1(C)CC(=O)C=C(Nc2ccc(Cl)cc2)C1,,inconclusive: 15.6%,
CCOc1ccccc1-c1nc(CN2CCCC2c2nccs2)c(C)o1 (stereo unspecified),,inconclusive: -5.7%,
COc1ccc2oc(-c3ccccc3)c(C(=O)O)c2c1,"inconclusive: 29.1 µM [activator, single point]",,
O=C(Nc1ccccn1)c1ccc([N+](=O)[O-])o1,active: 20.6 µM,,
Cc1cccc(NS(=O)(=O)c2cnc[nH]2)c1,,inconclusive: 3.35%,
CC(C)NC(=O)CSc1ccccc1C(=O)N1CCN(S(=O)(=O)Cc2ccccc2)CC1,,inconclusive,
O=C1CN(C(=O)c2ccc(Br)o2)C(c2ccccc2)c2cc(Cl)ccc2N1 (stereo unspecified),,inconclusive: 13.3%,

Compound,Potency,"lipid storage change, negative = inhibition",outcome
C/C(=N/Nc1ncc(Br)cn1)c1ccc(Br)cc1,,inconclusive: -63%,
O=C(COC(=O)c1ccccc1C(=O)OCC(=O)NCCc1c[nH]c2ccccc12)NCCc1c[nH]c2ccccc12,,inconclusive: -71.5%,
CN(C)Cc1c(C(=O)N/N=C/c2ccccc2OCc2ccc(F)cc2)nnn1-c1nonc1N,,inconclusive: 14.2%,
CCN(c1ccccc1)C1(O)C(=O)c2ccccc2C1=O,,inconclusive: -0.54%,
CCCc1cc(C(=O)OC)c2ccccc2n1,,inconclusive: 0.627%,
CC(C)N(CCNC(=O)c1ccc(NC2=NC3CS(=O)(=O)CC3S2)cc1)Cc1ccco1 (stereo unspecified),,inconclusive: 19.4%,
CCc1ccc(-c2cc(C)no2)cc1S(=O)(=O)N1CCN(c2ccc(F)cc2)CC1,"inconclusive: 5.8 µM [activator, full curve]",,
COc1cc(CN(C)C(C)C(=O)Nc2ccc([N+](=O)[O-])cc2Cl)ccc1OC(F)F (stereo unspecified),,inconclusive: -11.1%,
O=C(OCC(=O)N1CCCC1)c1ccccc1OCc1ccccc1,,inconclusive: 34.7%,
CCCNc1ccc(S(=O)(=O)N(CC)CC)cn1,,inactive: -12.3%,
Cc1cc(C)nc(OC(=O)c2ccc(Cl)cc2Cl)n1,,inconclusive: -47.7%,
OC(Cn1nnc2ccccc21)Cn1c(C(F)(F)F)nc2ccccc21 (stereo unspecified),,inconclusive: -11.5%,
Cc1ccccc1Cn1ccc(=NCc2ccccc2)cc1,,inconclusive: -44.4% [cytotoxic],
N#Cc1c(NC(=O)CCCl)sc2c1CCCCC2,,inconclusive: 31.7%,
Cc1occc1C(=O)NCc1nc(-c2ccccc2)no1,,inconclusive: -41.7%,
O=C(Nc1ccccc1)c1ccc(S(=O)(=O)N2CCCCC2)cc1,,inactive: 1.31%,
Cc1cccc(NC(=O)COc2ccc3oc4c(c3c2)CCCC4)n1,"inconclusive: 14.6 µM [activator, partial curve]",,
CC1=C(C(=O)Nc2ccccc2C(=O)N2CCCCC2)SCCO1,,inconclusive: -6.69%,
O=C(OCc1nnc(-c2ccccc2)o1)c1ccc([N+](=O)[O-])o1,,inconclusive,
O=CN1CCN(C(=O)c2ccccc2F)CC1,,inconclusive: 0.805%,
COc1ccccc1Nc1ncc(-c2cccs2)s1,,inconclusive: 1.25%,

# Already shown: 20 of the compounds above.
Compound,Potency,"lipid storage change, negative = inhibition",outcome
Cc1cccc(NS(=O)(=O)c2cnc[nH]2)c1,,inconclusive: 3.35%,
CC(C)NC(=O)CSc1ccccc1C(=O)N1CCN(S(=O)(=O)Cc2ccccc2)CC1,,inconclusive,
O=C1CN(C(=O)c2ccc(Br)o2)C(c2ccccc2)c2cc(Cl)ccc2N1 (stereo unspecified),,inconclusive: 13.3%,
C/C(=N/Nc1ncc(Br)cn1)c1ccc(Br)cc1,,inconclusive: -63%,
O=C(COC(=O)c1ccccc1C(=O)OCC(=O)NCCc1c[nH]c2ccccc12)NCCc1c[nH]c2ccccc12,,inconclusive: -71.5%,
CN(C)Cc1c(C(=O)N/N=C/c2ccccc2OCc2ccc(F)cc2)nnn1-c1nonc1N,,inconclusive: 14.2%,
CCN(c1ccccc1)C1(O)C(=O)c2ccccc2C1=O,,inconclusive: -0.54%,
CCCc1cc(C(=O)OC)c2ccccc2n1,,inconclusive: 0.627%,
CC(C)N(CCNC(=O)c1ccc(NC2=NC3CS(=O)(=O)CC3S2)cc1)Cc1ccco1 (stereo unspecified),,inconclusive: 19.4%,
CCc1ccc(-c2cc(C)no2)cc1S(=O)(=O)N1CCN(c2ccc(F)cc2)CC1,"inconclusive: 5.8 µM [activator, full curve]",,
COc1cc(CN(C)C(C)C(=O)Nc2ccc([N+](=O)[O-])cc2Cl)ccc1OC(F)F (stereo unspecified),,inconclusive: -11.1%,
O=C(OCC(=O)N1CCCC1)c1ccccc1OCc1ccccc1,,inconclusive: 34.7%,
CCCNc1ccc(S(=O)(=O)N(CC)CC)cn1,,inactive: -12.3%,
Cc1cc(C)nc(OC(=O)c2ccc(Cl)cc2Cl)n1,,inconclusive: -47.7%,
OC(Cn1nnc2ccccc21)Cn1c(C(F)(F)F)nc2ccccc21 (stereo unspecified),,inconclusive: -11.5%,
Cc1ccccc1Cn1ccc(=NCc2ccccc2)cc1,,inconclusive: -44.4% [cytotoxic],
N#Cc1c(NC(=O)CCCl)sc2c1CCCCC2,,inconclusive: 31.7%,
Cc1occc1C(=O)NCc1nc(-c2ccccc2)no1,,inconclusive: -41.7%,
O=C(Nc1ccccc1)c1ccc(S(=O)(=O)N2CCCCC2)cc1,,inactive: 1.31%,
Cc1cccc(NC(=O)COc2ccc3oc4c(c3c2)CCCC4)n1,"inconclusive: 14.6 µM [activator, partial curve]",,

# (list continues)

Compound,Potency,"lipid storage change, negative = inhibition",outcome
N#Cc1ccc(NC(=O)COC(=O)C2Cc3ccccc3CN2C(=O)c2ccccc2)cc1 (stereo unspecified),,inconclusive: 6.86%,
Cc1nnc(SCC(=O)Nc2sc3c(c2C#N)CCCC3)[nH]c1=O,,inconclusive: -55.2%,
O=C(Cn1[nH]c(=O)c2ccccc2c1=O)OCC(=O)c1ccc(F)cc1,,inconclusive: 8.15%,
CCC(=O)NC1(C(F)(F)F)C(=O)Nc2c1c(=O)n(C)c(=O)n2C (stereo unspecified),,,inactive [at 46.1 µM]
O=C(COC(=O)C(Cc1ccccc1)NC(=O)c1ccc(Cl)cc1)c1ccc(Cl)cc1 (stereo unspecified),,inconclusive: 10.2%,
O=C(c1ccco1)N1CCN(S(=O)(=O)c2ccc3c(c2)CCN3C(=O)C2CCC2)CC1,,inconclusive: -6.29%,
Cc1ccc(-c2c(C(=O)N/N=C/c3ccc4c(c3)OCO4)nnn2-c2nonc2N)cc1,,inconclusive: 22.3%,
S=c1[nH]nc(-c2cc(-c3ccco3)[nH]n2)n1-c1ccccc1Cl,,inconclusive: 29.2%,
COC(C[C@H](O)C[C@@H](O)COCc1ccccc1)OC,,inconclusive: -8.18%,
CCOC(=O)c1ccccc1NC(=O)c1ccc(F)cc1,,inconclusive: 17.7%,
COc1ccccc1/C=N/N(C(C)=O)c1nc(-c2ccc(F)cc2)cs1,,inconclusive: 3.96%,
COC(=O)C1=C(C)N(Cc2ccccc2)C(=NCCc2c[nH]c3ccccc23)N[C@H]1c1cccc(C(F)(F)F)c1,"inconclusive: 29.1 µM [falling, single point]",,
Cc1ccc(C)c(NC(=O)c2ccccc2Sc2ccc([N+](=O)[O-])cc2Cl)c1,,inconclusive: 20.9%,
Cc1ccc(/C=N/Nc2nnc(Cl)c3ccccc23)cc1,,inconclusive: 28.5%,
CCOC(=O)C1CCCN(CCC(=O)Nc2ccc(C)c(C)c2)C1 (stereo unspecified),,inactive: 3.75%,
Cc1ccc(Cn2nnc(C(=O)Nc3cccc(C)c3C)c2N)cc1,,inconclusive: 70.3%,
COC(=O)c1c(C)[nH]c(C(=O)OCC(=O)NC(C)(C)C)c1C,,inconclusive: 7.08% [at 9.22 µM],
O=c1[nH][nH]c(-c2ccccc2)c1C=Nc1ccccc1Cl,,inconclusive: 10.4%,
Nc1ccc(C23CC4CC(CC(C4)C2)C3)cc1,"inconclusive: 0.0651 µM [falling, full curve, poor fit]",,
COc1ccc(-c2noc(N3CCC(C(=O)Nc4ccc(OC)c(OC)c4)CC3)n2)cc1,"inconclusive: 0.0231 µM [activator, full curve, poor fit]",,
Cc1cc(C)nc(SCC(=O)c2cc3ccccc3oc2=O)n1,,inconclusive: -55.3%,

Compound,Potency,"lipid storage change, negative = inhibition",outcome
O=C(CCN1C(=O)c2ccccc2C1=O)Nc1cc(F)ccc1F,"inconclusive: 0.0326 µM [falling, full curve, poor fit]",,
Cc1nn(-c2ccccc2)c(Cl)c1C(=O)Nc1ccc(N2CCOCC2)cc1,,inconclusive: 32.7%,
Cc1ccc(NC(=O)N2CCCC2C(=O)NCc2ccc3c(c2)OCO3)cc1 (stereo unspecified),"inconclusive: 2.91 µM [falling, full curve]",,
CCC1CN(C(=O)NCc2ccccc2)c2cc(C)ccc2O1 (stereo unspecified),,inconclusive: 8.05%,
COc1ccc(C(C(=O)NC2CCCCC2)N(Cc2cccs2)C(=O)Cc2c[nH]c3ccccc23)cc1OC (stereo unspecified),,inconclusive: -40.7%,
CC(C)C(=O)NC(Nc1cc(C(F)(F)F)ccc1Cl)C(Cl)(Cl)Cl (stereo unspecified),"inconclusive: 32.6 µM [falling, single point]",,
COc1ccc(C(=O)NC(=S)Nc2ccc(N3CCOCC3)cc2)cc1Cl,,inconclusive: -50.2%,
CC(C)C(NC(=O)c1ccc(C(C)(C)C)cc1)C(=O)N1CCCC1 (stereo unspecified),,inconclusive: 5.76%,
COC(=O)c1sccc1NC(=S)N1CCN(c2cc(C)ccc2C)CC1,,inconclusive: 21.8%,
CCOC(=O)c1sc(NC(=O)c2ccc(S(=O)(=O)N3CCCCC3)cc2)nc1-c1ccccc1,"inconclusive: 4.61 µM [activator, full curve, poor fit]",,
O=c1[nH]cnc2c1c(-c1ccccc1)cn2-c1ccc(Br)cc1,,inconclusive: 21.8%,
CCC(CC)N1CCN(Cc2nc3ccc([N+](=O)[O-])cc3c(=O)n2-c2ccccc2F)CC1,,inconclusive: 6.68%,
O=C(Nc1ccccc1Cl)Nc1ccccc1Cl,,inactive: -9.54%,
O=S(=O)(Cc1cccc(F)c1)c1c[nH]c2ccccc12,"inconclusive: 3.66 µM [activator, single point]",,
COc1ccc(OCc2cccc(C(=O)Nn3cc([N+](=O)[O-])cn3)c2)cc1,,inconclusive: -46.4%,
COc1ccc(NC(=O)CSCc2ccc(C#N)cc2)c(OC)c1,,inconclusive: 36.5%,
O=C(COC(=O)Cc1cccc(F)c1)NC(=O)NC1CCCCC1,,inconclusive,
CC(CCc1ccccc1)NS(=O)(=O)c1ccccc1 (stereo unspecified),"inconclusive: 25.9 µM [falling, partial curve, poor fit]",,
